Out of some 300,000 compounds screened, about 5,400 (1.8%) were called active. The shares of active, inactive and inconclusive entries below differ from those in the screen. Calls follow the shape of the full dose curve; tested in HEK293 cells. A potency beside an inconclusive call is a rough fit, not a confirmed value.
Assay: qHTS for inhibitors of binding or entry into cells for Marburg Virus
Conditions: Marburg virus pseudotyped entry inhibition, cell reporter; activity change, negative = inhibition: at 37.8 µM (top of the series) unless noted
% is scaled to controls: 0 for no effect and ±100 for the full control effect; potency is read from the fitted curve at half-maximal effect.

SMILES	activity change, negative = inhibition	Potency
COCCn1cnnc1SCC(=O)c1ccc(S(=O)(=O)N2CCCC2)cc1	inactive: 2.43% [at 46.1 µM]	
O=c1[nH]cccc1-c1nc2ccccc2n1Cc1cccc(F)c1		inconclusive: 1.26 µM [activator, single point]
Cc1cc(C)cc(OCC(=O)NC2CCCc3ccccc32)c1 (centres undefined)		inconclusive: 3.16 µM [inhibitor, partial curve, poor fit]
CCc1nnc2c(Nc3cccc(F)c3)nc3ccc(C(=O)c4ccccc4)cc3n12		inconclusive: 0.562 µM [inhibitor, full curve, poor fit]
O=C(Nc1ccon1)c1ccc(OC2CCCC2)cc1		inconclusive: 6.31 µM [activator, single point]
CCC(C)Cn1c(/C=C/c2ccccc2)nc2ccccc21 (centres undefined)		inconclusive: 5.62 µM [activator, full curve, poor fit]
O=C(Cc1ccc(-c2ccccc2)cc1)Nc1ccccc1	inactive: 19.8% [at 46.1 µM]	
Cn1c(=O)c(C(=O)CCl)c(N)n(Cc2ccccc2)c1=O	inactive: -15.8%	
CC(=O)Nc1ccc(S(=O)(=O)O)c(OC(C)=O)c1	inactive: 21.2% [at 46.1 µM]	
CCOc1ccc(/C(O)=C2/C(=O)C(=O)N(CCN(CC)CC)C2c2ccco2)cc1 (centres undefined)		inconclusive: 0.562 µM [activator, full curve, poor fit]
Cc1ccccc1C(=O)NC(=S)Nc1ccc(N2CCOCC2)cc1	inactive: 16.8% [at 46.1 µM]	
CC(CN1CCCCC1)OC(=O)C(C)(c1ccccc1)c1ccccc1 (centres undefined)		inconclusive: 25.9 µM [inhibitor, single point]
Cc1ccc(S(=O)(=O)c2nc(Nc3ccccc3)sc2Cl)cc1		inconclusive: 23.1 µM [inhibitor, single point]
CCS(=O)(=O)c1ccc(O)c(Nc2cc(C)nc(SC)n2)c1		inconclusive: 4.47 µM [inhibitor, single point]
COC(=O)c1cccc(NC(N)=S)c1		inconclusive: 6.31 µM [activator, single point]
COc1ccc(C2CC(C(F)(F)F)n3ncc(C(=O)NCc4cccnc4)c3N2)cc1OC (centres undefined)	inactive: -3.45%	
Cc1ccc(N2C(=O)NC(=O)C(CCc3ccncc3)(Cc3cccc(Cl)c3Cl)C2=O)cc1 (centres undefined)		inconclusive: 1.41 µM [activator, partial curve, poor fit]
COc1ccc(-n2nc(C(=O)NCC(=O)N3CCC4(CC3)OCCO4)c3ccccc3c2=O)cc1		inconclusive: 10 µM [activator, partial curve]
O=c1c2c3nc4ccccc4nc3n(/N=C/c3ccco3)c2ncn1CCC1=CCCCC1		inconclusive: 32.6 µM [inhibitor, partial curve, poor fit]
CCCS(=O)(=O)C/C(N)=N/OC(=O)c1ccccc1Cl		inconclusive: 22.4 µM [inhibitor, single point]
CCN1CCN(c2nc3ccccc3nc2C(C#N)C(=O)OCc2ccccc2)CC1 (centres undefined)		inconclusive: 23.1 µM [inhibitor, single point]
O=[N+]([O-])c1ccc(O)c(C2CCCCC2)c1		inconclusive: 22.4 µM [inhibitor, single point]
COc1cc2c(C#N)c(N3CCc4ccccc4C3)nc(N)c2c(N)n1		inconclusive: 12.6 µM [inhibitor, partial curve, poor fit]

SMILES	activity change, negative = inhibition	Potency
COC(=O)c1ccc(C2c3c(oc4ccccc4c3=O)C(=O)N2c2nc(C)c(C(=O)OC)s2)cc1 (centres undefined)	inactive: 9.22% [at 46.1 µM]	
CC(C)N(CCNCC(O)COc1ccc(C(C)(C)c2ccccc2)cc1)C(C)C (centres undefined)		inconclusive: 1 µM [inhibitor, partial curve, poor fit]
Cc1nn(C)cc1-c1n[nH]c(=S)n1-c1ccc(F)cc1		inconclusive: 0.794 µM [inhibitor, partial curve, poor fit]
O=C(/C=C/c1ccco1)Nc1ccc2c(c1)OCCO2		inconclusive: 10 µM [inhibitor, partial curve, poor fit]
Oc1cccc(C=NCc2ccccc2)c1	inactive: 15.1%	
Cc1oc2ccc(O)c(CN3CCN(C)CC3)c2c1C(=O)Nc1cccc(Cl)c1C	inactive: -6.91% [at 46.1 µM]	
COc1ccccc1NS(=O)(=O)c1ccc(N/N=C(\C)C(C)C)c([N+](=O)[O-])c1		inconclusive: 14.1 µM [inhibitor, partial curve, poor fit]
CC(OC(=O)c1cc(=O)[nH]c2ccccc12)C(=O)N1C(C)CCCC1C (centres undefined)		inconclusive: 0.631 µM [inhibitor, partial curve, poor fit]
Cc1ccc(S(=O)(=O)Nc2ccc(N3CCOCC3)cc2)cc1C	inactive: 8.02% [at 46.1 µM]	
Cc1oc(-c2cccc(Cl)c2)nc1CS(=O)(=O)CC(=O)NCc1ccccc1Cl		inconclusive: 0.562 µM [inhibitor, full curve, poor fit]
O=S1(=O)N=C(N/N=C/c2ccccn2)c2ccccc21	inactive: -2.39%	
Fc1ccccc1N1CCN(C2CCN(Cc3c[nH]c4ccccc34)CC2)CC1		active: 9.2 µM
CCc1cccc(C)c1NC(=O)COC(=O)CNS(=O)(=O)/C=C/c1ccccc1		inconclusive: 32.6 µM [inhibitor, single point]
COc1ccc(N(C(=O)c2snc(C(N)=O)c2N)C(C(=O)NCc2ccccc2)c2ccc(O)cc2)cc1OC (centres undefined)	inactive: 7.13% [at 46.1 µM]	
COc1ccc(CCN2C(=O)CC(NC34CC5CC(CC(C5)C3)C4)C2=O)cc1OC (centres undefined)	inactive: -15% [at 46.1 µM]	
C=CCNC(=O)COC(=O)c1cccnc1Nc1ccccc1F		inconclusive: 8.91 µM [activator, partial curve]
COC(=O)[C@H]1[C@@H](c2ccccc2)NC(=O)O[C@@H]1C		inconclusive: 0.944 µM [activator, full curve, poor fit]
c1csc(-c2nc3ccccc3[nH]2)c1	inactive: -6.31%	
CCCNC(=O)COC(=O)c1ccc(N2CCCC2)c([N+](=O)[O-])c1	inactive: 5.11% [at 46.1 µM]	
CCNC(=O)COC(=O)c1ccc(NS(=O)(=O)c2ccc3c(c2)OCCO3)cc1		inconclusive: 5.62 µM [activator, single point]
Cc1ccc(NC(=O)c2cccnc2)cc1S(=O)(=O)N(C)C	inactive: 12.5% [at 46.1 µM]	
CC(=Nc1ccc2c(c1)CCC2)c1c(O)n(C2CCCCC2)c(=O)[nH]c1=O	inactive: -4.34%	
COc1cc(C(C)=O)ccc1Oc1ncnc2c1cnn2-c1ccc(C)c(C)c1		inconclusive: 1.26 µM [inhibitor, single point]

Copied from the list:
Potency, Fc1ccccc1N1CCN(C2CCN(Cc3c[nH]c4ccccc34)CC2)CC1 is entered as active: 9.2 µM
Potency, COc1ccccc1NS(=O)(=O)c1ccc(N/N=C(\C)C(C)C)c([N+](=O)[O-])c1 is entered as inconclusive: 14.1 µM [inhibitor, partial curve, poor fit]
activity change, negative = inhibition, c1csc(-c2nc3ccccc3[nH]2)c1 is entered as inactive: -6.31%
activity change, negative = inhibition, Cc1oc2ccc(O)c(CN3CCN(C)CC3)c2c1C(=O)Nc1cccc(Cl)c1C is entered as inactive: -6.91% [at 46.1 µM]
Potency, COC(=O)[C@H]1[C@@H](c2ccccc2)NC(=O)O[C@@H]1C is entered as inconclusive: 0.944 µM [activator, full curve, poor fit]
activity change, negative = inhibition, COc1ccc(CCN2C(=O)CC(NC34CC5CC(CC(C5)C3)C4)C2=O)cc1OC (centres undefined) is entered as inactive: -15% [at 46.1 µM]

Following part

SMILES	activity change, negative = inhibition	Potency
Cc1ccc(N(Cc2ccccc2)C(=O)c2cc(S(=O)(=O)N3CCOCC3)ccc2N2CCCC2)cc1		inconclusive: 11.2 µM [inhibitor, single point]
COc1ccc2c(c1[N+](=O)[O-])CCC/C2=N/OC(=O)c1ccccc1SC		inconclusive: 0.316 µM [activator, partial curve, poor fit]
COC(=O)c1cc(OC)c(OC)cc1NC(=S)N1CCN(C/C=C/c2ccccc2)CC1		inconclusive: 10 µM [inhibitor, partial curve, poor fit]
COc1ccccc1NC(=O)CSc1nnc(-c2ccncc2)o1	inactive: 4.01%	
CC(NCC(O)COc1ccc2ccccc2c1)c1ccccc1 (centres undefined)		inconclusive: 35.5 µM [inhibitor, partial curve, poor fit]
CNC(=S)Nc1cc(OC)c(NC(=O)c2ccco2)cc1OC	inactive: 17.9% [at 46.1 µM]	
S=C(NCCc1ccccc1)N1CCn2cccc2C1c1cccnc1 (centres undefined)		inconclusive: 2.82 µM [inhibitor, partial curve]
Fc1ccccc1CSc1nc2ncccc2[nH]1	inactive: 16.2%	
S=C(NCCN1CCOCC1)NC1CCCC1		inconclusive: 11.2 µM [activator, partial curve, poor fit]
Cc1cccc(CCNc2ncnc3onc(-c4ccc(Cl)cc4)c23)c1		inconclusive: 1.41 µM [inhibitor, partial curve, poor fit]
COc1ccc(OC)c(S(=O)(=O)N2CCN(C34CC5CC(CC(C5)C3)C4)CC2)c1		inconclusive: 20 µM [inhibitor, single point]
CCc1ccc(OCC(=O)NC(NC(=S)Nc2ccccc2)C(Cl)(Cl)Cl)cc1 (centres undefined)		inconclusive: 25.9 µM [inhibitor, single point]
COc1cc(/C=C2\SC(=Nc3ccccc3)NC2=O)cc(Cl)c1O		inconclusive: 10 µM [inhibitor, single point]
CCCCC(=O)NC(NC(=S)N1CCCCCC1)C(Cl)(Cl)Cl (centres undefined)		inconclusive: 12.6 µM [inhibitor, partial curve, poor fit]
COC(=O)C1(C(F)(F)F)N=C(N(C)C)OC(N(C)C)=N1		inconclusive: 35.5 µM [activator, partial curve, poor fit]
CCOC(=O)c1ccc(N2C(=O)c3n[nH]c(C)c3C2c2ccccc2OC)cc1 (centres undefined)	inactive: -5.23% [at 46.1 µM]	
COc1cc(C)c(-c2cc(C(=O)O)c(C)o2)cc1C(C)C		inconclusive: 35.5 µM [activator, partial curve, poor fit]
Cc1ccccc1Cn1c2ccccc2c2cnn(CC(=O)NC(C)CCc3ccccc3)c(=O)c21 (centres undefined)	inactive: 6.25% [at 46.1 µM]	
CCOC(=O)N1CCN(c2ccc(C(=O)c3ccccc3)cc2F)CC1	inactive: -9.2%	
O=C(c1ccc(N2CCCS2(=O)=O)cc1)N1CCN(c2ccc(F)cc2)CC1		inconclusive: 35.5 µM [inhibitor, single point]
CCCC(=O)n1nc(NCc2ccc(OC)cc2)nc1NCc1ccc(OC)cc1		inconclusive: 20 µM [inhibitor, partial curve, poor fit]
CCOc1ccc(C2NCCc3cc(OC)c(OC)cc32)cc1OC (centres undefined)		inconclusive: 1.12 µM [inhibitor, single point]
O=C(CSc1nnc(-c2ccccn2)n1Cc1ccco1)c1ccc(Cl)cc1	inactive: -0.363%	

— PubChem BioAssay AID540276 (National Center for Advancing Translational Sciences (NCATS), 2011)
